Assay results: the supplement of paper PMC10849652
This is one part of the list.

By UniProt entry, the sequences of proteins in these tests, tags left out. Where a name states a change or a piece, a line headed by the entry shows the natural chain unless it says otherwise.
UniProt Q6P2P2: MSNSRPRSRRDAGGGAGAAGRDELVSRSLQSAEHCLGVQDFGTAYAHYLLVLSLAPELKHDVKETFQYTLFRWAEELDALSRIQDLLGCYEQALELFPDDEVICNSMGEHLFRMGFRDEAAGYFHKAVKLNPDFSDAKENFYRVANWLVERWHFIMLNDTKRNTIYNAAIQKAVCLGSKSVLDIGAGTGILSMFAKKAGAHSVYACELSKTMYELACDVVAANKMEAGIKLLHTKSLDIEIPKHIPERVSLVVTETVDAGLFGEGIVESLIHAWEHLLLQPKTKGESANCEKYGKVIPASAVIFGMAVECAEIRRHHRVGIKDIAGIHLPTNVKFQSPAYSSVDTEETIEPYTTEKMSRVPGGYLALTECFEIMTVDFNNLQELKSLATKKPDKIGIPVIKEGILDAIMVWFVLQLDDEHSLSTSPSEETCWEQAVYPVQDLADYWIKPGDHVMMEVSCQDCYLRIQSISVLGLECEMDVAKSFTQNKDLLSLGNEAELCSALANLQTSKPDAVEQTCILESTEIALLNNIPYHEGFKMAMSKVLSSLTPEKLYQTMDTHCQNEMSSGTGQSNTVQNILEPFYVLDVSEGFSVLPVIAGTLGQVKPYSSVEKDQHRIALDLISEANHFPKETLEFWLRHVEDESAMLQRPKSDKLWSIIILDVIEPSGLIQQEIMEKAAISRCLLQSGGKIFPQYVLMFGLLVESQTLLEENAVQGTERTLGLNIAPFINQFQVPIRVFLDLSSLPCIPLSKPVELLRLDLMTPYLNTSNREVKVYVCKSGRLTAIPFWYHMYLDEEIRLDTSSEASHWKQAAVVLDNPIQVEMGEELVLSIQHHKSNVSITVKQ
UniProt O15091: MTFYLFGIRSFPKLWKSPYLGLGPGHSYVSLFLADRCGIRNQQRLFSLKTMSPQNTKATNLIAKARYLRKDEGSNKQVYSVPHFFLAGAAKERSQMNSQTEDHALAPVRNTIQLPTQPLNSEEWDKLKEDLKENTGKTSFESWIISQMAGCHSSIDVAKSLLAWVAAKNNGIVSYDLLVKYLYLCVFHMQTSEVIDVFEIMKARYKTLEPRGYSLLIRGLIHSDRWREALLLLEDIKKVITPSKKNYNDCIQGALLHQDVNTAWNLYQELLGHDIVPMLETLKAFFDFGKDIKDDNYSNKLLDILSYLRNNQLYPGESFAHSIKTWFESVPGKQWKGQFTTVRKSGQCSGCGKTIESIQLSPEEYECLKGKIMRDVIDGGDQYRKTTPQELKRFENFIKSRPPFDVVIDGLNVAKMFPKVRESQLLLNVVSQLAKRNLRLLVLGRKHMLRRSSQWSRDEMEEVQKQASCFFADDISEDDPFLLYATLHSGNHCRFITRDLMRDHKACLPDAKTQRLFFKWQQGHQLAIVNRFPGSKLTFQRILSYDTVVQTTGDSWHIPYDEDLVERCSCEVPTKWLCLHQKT
UniProt Q9UMS4: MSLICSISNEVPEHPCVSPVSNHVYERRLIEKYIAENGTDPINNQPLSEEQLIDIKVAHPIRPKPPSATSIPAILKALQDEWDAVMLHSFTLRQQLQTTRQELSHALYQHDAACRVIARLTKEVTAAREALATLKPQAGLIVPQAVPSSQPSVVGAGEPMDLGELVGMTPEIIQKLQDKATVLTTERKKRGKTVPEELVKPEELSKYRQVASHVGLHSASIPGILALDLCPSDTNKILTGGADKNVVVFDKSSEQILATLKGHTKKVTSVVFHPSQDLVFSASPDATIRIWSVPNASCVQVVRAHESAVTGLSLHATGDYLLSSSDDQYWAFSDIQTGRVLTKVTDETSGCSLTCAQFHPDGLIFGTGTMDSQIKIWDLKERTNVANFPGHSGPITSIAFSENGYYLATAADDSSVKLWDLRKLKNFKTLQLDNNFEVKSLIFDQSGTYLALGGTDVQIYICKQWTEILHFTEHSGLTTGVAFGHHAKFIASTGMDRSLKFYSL
UniProt Q15173: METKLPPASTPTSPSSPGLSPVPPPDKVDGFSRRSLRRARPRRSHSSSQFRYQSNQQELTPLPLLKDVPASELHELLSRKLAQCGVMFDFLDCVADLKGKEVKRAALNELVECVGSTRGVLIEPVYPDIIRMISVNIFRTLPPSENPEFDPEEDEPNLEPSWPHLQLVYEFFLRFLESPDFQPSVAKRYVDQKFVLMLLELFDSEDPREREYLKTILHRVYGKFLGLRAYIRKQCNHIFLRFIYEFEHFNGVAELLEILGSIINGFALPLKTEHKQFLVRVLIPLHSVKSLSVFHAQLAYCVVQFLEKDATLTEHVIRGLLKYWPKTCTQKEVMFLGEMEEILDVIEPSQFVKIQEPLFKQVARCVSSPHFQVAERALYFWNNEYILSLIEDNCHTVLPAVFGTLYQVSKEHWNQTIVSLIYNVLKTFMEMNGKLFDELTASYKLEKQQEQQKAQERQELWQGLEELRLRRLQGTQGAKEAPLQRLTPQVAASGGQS
UniProt O94806: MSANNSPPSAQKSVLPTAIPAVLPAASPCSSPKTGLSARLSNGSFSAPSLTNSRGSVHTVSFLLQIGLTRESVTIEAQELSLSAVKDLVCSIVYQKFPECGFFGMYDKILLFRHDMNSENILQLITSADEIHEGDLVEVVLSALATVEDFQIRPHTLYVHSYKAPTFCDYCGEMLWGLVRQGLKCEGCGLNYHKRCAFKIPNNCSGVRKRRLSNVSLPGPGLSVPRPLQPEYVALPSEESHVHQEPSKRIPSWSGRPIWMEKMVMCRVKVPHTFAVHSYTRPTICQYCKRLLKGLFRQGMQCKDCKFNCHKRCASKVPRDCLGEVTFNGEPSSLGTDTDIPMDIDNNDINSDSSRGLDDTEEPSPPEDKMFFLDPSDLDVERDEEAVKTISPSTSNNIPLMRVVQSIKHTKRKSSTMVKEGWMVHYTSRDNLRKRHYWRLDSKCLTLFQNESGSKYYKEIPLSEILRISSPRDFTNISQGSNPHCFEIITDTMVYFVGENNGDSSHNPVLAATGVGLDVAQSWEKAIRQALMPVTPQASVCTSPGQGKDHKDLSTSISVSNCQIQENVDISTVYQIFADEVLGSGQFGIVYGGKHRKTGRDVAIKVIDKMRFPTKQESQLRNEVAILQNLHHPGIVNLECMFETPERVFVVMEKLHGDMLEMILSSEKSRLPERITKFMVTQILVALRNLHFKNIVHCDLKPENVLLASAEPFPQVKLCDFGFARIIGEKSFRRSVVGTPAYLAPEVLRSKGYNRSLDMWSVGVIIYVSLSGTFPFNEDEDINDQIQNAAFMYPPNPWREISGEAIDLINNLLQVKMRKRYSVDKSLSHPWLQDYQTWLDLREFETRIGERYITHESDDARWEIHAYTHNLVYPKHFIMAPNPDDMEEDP
UniProt O00743: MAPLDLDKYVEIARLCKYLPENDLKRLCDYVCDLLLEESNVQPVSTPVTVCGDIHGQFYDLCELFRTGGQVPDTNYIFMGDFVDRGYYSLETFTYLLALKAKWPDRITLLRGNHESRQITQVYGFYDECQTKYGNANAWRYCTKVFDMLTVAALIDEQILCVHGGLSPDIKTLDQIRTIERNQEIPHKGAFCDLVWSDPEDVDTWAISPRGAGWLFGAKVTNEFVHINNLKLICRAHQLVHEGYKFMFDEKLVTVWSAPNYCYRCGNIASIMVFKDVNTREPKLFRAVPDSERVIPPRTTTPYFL
UniProt Q9BZL6: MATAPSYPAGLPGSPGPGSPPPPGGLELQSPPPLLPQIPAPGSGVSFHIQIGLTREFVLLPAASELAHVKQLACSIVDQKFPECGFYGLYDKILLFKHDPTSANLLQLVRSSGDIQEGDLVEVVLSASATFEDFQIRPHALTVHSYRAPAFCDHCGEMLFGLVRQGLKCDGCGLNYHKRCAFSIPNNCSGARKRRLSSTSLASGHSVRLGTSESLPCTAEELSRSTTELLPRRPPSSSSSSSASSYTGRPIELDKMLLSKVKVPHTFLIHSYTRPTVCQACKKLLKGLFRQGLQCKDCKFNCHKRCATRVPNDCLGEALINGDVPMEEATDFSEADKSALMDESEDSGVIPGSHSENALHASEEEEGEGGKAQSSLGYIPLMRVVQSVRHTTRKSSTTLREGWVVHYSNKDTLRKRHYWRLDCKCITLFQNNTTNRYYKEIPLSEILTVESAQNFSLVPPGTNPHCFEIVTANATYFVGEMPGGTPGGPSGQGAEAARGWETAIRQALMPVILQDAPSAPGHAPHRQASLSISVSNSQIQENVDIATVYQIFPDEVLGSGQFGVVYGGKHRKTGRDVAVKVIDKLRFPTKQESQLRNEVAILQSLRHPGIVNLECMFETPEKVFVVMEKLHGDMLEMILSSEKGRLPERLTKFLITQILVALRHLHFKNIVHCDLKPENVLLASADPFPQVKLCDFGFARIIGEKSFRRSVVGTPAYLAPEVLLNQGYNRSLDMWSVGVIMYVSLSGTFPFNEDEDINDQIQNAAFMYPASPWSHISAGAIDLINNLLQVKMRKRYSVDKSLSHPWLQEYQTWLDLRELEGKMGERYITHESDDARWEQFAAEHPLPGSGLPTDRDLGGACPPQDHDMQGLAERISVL
UniProt Q8TAE6: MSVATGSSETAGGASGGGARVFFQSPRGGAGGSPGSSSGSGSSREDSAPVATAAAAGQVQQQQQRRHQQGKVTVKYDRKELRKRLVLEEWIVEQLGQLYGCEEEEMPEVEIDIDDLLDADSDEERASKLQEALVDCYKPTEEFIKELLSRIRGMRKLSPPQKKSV
UniProt Q8WUF5: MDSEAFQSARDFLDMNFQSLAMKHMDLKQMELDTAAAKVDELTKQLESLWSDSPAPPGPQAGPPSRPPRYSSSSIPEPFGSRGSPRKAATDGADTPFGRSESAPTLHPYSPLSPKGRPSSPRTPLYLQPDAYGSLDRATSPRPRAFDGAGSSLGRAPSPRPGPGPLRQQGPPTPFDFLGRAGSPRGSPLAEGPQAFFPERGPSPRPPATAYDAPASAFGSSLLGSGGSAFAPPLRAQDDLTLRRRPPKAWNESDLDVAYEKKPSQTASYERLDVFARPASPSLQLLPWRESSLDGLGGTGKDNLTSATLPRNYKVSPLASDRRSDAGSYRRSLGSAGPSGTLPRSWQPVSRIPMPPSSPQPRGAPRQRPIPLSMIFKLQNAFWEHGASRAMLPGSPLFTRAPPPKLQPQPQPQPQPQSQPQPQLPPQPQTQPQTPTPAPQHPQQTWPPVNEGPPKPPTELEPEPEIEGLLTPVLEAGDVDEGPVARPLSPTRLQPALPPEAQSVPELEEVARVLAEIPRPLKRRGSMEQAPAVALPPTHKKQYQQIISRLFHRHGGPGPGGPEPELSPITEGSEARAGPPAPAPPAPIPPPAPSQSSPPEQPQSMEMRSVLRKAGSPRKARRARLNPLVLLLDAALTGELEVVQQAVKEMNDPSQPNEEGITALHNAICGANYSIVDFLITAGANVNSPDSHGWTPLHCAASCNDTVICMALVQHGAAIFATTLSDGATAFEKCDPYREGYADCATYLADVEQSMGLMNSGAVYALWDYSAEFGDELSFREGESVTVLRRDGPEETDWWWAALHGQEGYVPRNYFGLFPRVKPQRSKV
UniProt Q99873, whole entry, looked up: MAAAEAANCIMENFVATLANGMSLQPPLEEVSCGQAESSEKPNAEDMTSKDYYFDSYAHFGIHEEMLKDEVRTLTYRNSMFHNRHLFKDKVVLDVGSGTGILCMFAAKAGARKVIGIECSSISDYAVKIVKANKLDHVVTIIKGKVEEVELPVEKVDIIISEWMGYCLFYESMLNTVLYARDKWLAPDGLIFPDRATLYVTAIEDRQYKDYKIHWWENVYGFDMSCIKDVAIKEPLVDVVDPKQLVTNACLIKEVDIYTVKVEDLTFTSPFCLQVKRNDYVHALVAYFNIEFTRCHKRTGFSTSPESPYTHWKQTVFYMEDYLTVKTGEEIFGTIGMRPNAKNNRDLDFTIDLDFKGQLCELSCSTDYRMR

Compound: Cc1cc(Nc2cc(N3CCN(C)CC3)nc(Sc3ccc(NC(=O)C4CC4)cc3)n2)n[nH]1 [tozasertib]
Assay: log2 fold change, soluble protein after heating vs DMSO (PISA); higher = thermal stabilisation; K562 lysate, 10 uM; active = over 0.2 and 3.5 SD of the protein, either way, in both replicates (recomputed)
Method in brief: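 Thermal stability, expressed as log-two fold change relative to solvent controls, is given from duplicates. Crude K562 extract in PBS pH 7.4 with 1 mM MgCl2, at 1 mg/mL protein, was treated with 10 μM compound for 30 min and heated in aliquots for 3 min across 48°C-58°C. After pooling, adjustment to 0.5% NP-40 at 4°C and centrifugation at 21,000xg for 90 min, supernatant protein was measured by TMTpro 16plex LC-MS/MS with channel sums equalised.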

log2 fold change, inactive:
PPP4R4 (UniProt Q6NUP7) -0.364, PRKCQ (UniProt Q04759) 0.035, PPP5C (UniProt P53041) -0.006, PRMT9 (UniProt Q6P2P2) 0.023, PRKAR1B (UniProt P31321) 0.083, PRKX (UniProt P51817) 0.015, PRORP (UniProt O15091) 0.14, PRPF19 (UniProt Q9UMS4) 0.032, PPP2R5B (UniProt Q15173) 0.04, PRKD3 (UniProt O94806) 0.092, PPP6R1 (UniProt Q9UPN7) -0.025, PPP6C isoform 3 (UniProt O00743) 0.006, PRKACA (UniProt P17612) -0.12, PRKD2 isoform 3 (UniProt Q9BZL6) 0.019, PPP1R14C (UniProt Q8TAE6) 0.08, PRKDC (UniProt P78527) -0.03, PPP1R13L (UniProt Q8WUF5) 0.034, PRMT1 (UniProt Q99873) 0.007, PROS1 (UniProt P07225) -0.009, PPP1R12B isoform 6 (UniProt O60237) -0.015, PRKCA (UniProt P17252) 0.021, PPM1H (UniProt Q9ULR3) 0.021, PRMT7 (UniProt Q9NVM4) 0.039
